Source: patent US20080119561A1, “METHODS FOR PREVENTING OR DELAYING CATHETER- BASED RESVASCULARIZATION” (Pfizer Inc, priority 1998, published 2008)

System: patients with CAD and LDL-C≧130 mg/dL
Conditions: duration of the 18-month trial

For `CC(C)c1c(C(=O)Nc2ccccc2)c(-c2ccccc2)c(-c2ccc(F)cc2)n1CC[C@@H](O)C[C@@H](O)CC(=O)O` [atorvastatin], the “patients able to remain on drug therapy alone without any adverse cardiovascular events” value was 87%.
